Test results: paper PMC10290635
No constants are given. Whether binding was seen depends on the method and setting. Binding seen in cells or lysates may run through a third protein. Some binding calls cover weakened binding; strength is not graded here.

Protein sequences, listed by entry. Tags and fused reporters are not part of them.
UniProt Q99996: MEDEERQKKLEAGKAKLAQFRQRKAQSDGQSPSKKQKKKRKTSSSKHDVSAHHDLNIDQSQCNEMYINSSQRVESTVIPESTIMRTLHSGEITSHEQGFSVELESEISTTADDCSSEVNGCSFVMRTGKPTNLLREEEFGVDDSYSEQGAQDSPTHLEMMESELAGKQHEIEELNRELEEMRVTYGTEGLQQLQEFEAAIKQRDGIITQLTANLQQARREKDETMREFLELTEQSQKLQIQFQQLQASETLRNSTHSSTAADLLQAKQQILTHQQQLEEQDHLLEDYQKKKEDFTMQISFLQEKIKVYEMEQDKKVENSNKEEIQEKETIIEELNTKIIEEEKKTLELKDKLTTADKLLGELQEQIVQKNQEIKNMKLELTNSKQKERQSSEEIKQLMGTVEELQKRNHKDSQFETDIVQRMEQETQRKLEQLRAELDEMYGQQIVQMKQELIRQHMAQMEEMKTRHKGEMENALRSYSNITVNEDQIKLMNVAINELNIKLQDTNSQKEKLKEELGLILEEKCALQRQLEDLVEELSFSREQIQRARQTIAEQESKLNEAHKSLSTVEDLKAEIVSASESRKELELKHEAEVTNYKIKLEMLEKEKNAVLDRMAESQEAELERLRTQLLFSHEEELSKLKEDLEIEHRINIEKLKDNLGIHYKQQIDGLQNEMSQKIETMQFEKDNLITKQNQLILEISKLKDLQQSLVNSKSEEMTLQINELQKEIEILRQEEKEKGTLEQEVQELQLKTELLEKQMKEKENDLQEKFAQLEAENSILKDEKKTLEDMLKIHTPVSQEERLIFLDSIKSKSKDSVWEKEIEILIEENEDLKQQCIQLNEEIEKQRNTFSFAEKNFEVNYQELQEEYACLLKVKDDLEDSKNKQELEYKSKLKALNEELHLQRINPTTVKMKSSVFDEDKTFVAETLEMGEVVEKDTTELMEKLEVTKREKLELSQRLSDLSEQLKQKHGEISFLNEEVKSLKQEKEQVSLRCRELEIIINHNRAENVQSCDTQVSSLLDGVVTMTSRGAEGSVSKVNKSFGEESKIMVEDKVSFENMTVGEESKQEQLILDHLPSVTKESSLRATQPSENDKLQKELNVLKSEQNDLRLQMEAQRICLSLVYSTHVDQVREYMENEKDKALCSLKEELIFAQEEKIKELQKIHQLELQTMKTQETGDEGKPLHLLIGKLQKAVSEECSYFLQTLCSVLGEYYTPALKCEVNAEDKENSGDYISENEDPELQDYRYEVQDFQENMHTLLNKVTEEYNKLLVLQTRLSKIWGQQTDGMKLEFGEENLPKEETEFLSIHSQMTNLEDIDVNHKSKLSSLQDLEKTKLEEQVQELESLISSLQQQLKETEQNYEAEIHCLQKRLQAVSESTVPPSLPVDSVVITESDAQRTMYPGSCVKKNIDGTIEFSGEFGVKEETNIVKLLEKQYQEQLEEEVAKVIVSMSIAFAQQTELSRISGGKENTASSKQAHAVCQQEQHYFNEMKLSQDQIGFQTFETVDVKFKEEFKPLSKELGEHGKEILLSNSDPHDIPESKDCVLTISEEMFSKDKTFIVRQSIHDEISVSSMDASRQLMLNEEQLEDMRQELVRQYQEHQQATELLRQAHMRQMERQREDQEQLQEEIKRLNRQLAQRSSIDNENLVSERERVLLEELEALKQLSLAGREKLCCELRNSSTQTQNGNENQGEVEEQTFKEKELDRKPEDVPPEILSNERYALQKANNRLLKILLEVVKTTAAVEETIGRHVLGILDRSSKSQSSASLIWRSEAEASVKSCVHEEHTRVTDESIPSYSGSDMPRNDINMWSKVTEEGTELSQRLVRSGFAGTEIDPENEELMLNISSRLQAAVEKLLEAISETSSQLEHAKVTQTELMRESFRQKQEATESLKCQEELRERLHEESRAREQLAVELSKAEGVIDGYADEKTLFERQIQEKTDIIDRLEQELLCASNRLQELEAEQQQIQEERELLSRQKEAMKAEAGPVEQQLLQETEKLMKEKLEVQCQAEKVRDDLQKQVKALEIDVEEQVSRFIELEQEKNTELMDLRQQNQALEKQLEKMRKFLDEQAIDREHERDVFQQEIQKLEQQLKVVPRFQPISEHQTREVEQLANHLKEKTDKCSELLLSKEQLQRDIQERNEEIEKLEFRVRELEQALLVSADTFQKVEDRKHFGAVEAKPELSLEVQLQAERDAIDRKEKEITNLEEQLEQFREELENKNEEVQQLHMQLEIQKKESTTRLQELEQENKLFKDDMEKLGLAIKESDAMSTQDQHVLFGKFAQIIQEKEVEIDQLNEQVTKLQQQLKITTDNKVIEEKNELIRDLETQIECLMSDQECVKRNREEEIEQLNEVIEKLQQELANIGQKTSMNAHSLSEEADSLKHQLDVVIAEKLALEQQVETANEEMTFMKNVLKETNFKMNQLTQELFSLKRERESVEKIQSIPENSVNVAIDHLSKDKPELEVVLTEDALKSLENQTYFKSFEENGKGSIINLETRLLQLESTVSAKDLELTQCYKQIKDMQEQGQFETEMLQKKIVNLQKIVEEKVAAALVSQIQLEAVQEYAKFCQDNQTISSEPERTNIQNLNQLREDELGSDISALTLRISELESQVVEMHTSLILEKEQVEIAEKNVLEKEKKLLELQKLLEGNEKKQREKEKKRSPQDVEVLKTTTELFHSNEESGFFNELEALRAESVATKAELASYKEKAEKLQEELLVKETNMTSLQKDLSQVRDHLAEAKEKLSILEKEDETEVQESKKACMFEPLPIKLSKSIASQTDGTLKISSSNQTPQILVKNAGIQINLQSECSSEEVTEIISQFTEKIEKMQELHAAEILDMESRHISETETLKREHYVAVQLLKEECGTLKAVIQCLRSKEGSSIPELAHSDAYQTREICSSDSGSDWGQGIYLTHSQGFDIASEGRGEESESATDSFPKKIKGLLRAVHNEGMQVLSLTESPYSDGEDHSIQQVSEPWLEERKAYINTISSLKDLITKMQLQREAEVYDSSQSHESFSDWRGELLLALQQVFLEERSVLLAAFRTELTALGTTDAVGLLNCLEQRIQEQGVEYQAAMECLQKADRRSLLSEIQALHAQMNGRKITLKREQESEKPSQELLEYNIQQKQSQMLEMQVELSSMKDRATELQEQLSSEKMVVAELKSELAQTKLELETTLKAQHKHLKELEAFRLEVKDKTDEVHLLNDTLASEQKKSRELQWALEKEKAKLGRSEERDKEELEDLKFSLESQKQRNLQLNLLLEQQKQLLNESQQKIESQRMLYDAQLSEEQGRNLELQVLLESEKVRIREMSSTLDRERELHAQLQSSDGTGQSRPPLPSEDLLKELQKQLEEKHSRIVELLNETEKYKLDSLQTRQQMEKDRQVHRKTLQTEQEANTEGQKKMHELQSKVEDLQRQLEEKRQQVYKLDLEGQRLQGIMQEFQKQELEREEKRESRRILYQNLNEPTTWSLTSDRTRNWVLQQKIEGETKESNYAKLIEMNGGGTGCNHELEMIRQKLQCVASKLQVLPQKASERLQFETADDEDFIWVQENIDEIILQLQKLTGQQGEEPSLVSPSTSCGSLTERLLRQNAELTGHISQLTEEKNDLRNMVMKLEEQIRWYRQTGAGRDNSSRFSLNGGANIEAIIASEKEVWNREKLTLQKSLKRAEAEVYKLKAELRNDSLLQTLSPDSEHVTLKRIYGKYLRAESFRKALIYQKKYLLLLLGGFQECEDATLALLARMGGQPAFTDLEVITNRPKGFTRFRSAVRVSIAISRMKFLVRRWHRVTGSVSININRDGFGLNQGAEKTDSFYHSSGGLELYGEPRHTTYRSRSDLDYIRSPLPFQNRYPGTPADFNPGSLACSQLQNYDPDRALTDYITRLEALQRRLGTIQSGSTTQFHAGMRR
UniProt Q02156: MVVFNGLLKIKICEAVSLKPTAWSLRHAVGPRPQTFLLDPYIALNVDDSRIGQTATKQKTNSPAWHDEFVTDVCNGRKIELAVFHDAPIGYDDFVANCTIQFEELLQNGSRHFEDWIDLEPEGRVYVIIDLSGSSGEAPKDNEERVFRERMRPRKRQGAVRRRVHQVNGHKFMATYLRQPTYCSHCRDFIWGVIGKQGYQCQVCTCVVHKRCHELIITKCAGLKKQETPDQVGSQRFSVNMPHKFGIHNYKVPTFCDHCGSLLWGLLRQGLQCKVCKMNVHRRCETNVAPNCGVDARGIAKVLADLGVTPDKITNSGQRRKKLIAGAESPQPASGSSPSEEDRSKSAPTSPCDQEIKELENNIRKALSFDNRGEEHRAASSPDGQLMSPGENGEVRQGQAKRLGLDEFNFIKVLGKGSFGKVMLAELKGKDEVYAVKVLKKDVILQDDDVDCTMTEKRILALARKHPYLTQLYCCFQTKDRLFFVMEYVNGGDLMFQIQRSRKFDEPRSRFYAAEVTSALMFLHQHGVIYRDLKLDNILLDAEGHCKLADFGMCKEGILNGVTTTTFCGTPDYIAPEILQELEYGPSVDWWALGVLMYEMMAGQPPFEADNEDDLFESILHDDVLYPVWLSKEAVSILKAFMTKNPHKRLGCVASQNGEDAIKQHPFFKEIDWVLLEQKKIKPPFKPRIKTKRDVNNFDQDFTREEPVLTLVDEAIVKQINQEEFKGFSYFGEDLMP

Columns and labels:
[1] = molecular target: AKAP9 (human (endogenous in DLD1 and SW480)) (UniProt Q99996); assay: co-IP; endogenous; DLD1 and SW480 lysates (20 mM Tris-HCl pH 7.5, 150 mM NaCl, 1.0% Triton X-100) immunoprecipitated with an anti-AKAP9 antibody overnight at 4 °C, Protein G-Sepharose, IgG as negative control, Western blot
[2] = molecular target: Myc-tagged full-length PDE4DIP (phosphodiesterase 4D interacting protein) (human) (UniProt Q5VU43); assay: co-IP; lysates of DLD1 and SW480 cells transfected with the Myc-tagged PDE4DIP plasmid, immunoprecipitated with an anti-Myc antibody, Western blot of the endogenous partner

| binding [1] | binding [2] | Substance |
| --- | --- | --- |
| binds |  | PDE4DIP (endogenous) (from UniProt Q5VU43 1-2346) |
| binds | binds | PKCε (from UniProt Q02156 1-737) (enzyme) |
